Assay results from the supplement of paper PMC10849652.
The list shows a part of the results.

The chains behind the UniProt entries cited, without tags or fusion partners. Where a name states a change or a piece, a line headed by the entry shows the natural chain unless it says otherwise.
UniProt Q8N3C0, whole entry, looked up: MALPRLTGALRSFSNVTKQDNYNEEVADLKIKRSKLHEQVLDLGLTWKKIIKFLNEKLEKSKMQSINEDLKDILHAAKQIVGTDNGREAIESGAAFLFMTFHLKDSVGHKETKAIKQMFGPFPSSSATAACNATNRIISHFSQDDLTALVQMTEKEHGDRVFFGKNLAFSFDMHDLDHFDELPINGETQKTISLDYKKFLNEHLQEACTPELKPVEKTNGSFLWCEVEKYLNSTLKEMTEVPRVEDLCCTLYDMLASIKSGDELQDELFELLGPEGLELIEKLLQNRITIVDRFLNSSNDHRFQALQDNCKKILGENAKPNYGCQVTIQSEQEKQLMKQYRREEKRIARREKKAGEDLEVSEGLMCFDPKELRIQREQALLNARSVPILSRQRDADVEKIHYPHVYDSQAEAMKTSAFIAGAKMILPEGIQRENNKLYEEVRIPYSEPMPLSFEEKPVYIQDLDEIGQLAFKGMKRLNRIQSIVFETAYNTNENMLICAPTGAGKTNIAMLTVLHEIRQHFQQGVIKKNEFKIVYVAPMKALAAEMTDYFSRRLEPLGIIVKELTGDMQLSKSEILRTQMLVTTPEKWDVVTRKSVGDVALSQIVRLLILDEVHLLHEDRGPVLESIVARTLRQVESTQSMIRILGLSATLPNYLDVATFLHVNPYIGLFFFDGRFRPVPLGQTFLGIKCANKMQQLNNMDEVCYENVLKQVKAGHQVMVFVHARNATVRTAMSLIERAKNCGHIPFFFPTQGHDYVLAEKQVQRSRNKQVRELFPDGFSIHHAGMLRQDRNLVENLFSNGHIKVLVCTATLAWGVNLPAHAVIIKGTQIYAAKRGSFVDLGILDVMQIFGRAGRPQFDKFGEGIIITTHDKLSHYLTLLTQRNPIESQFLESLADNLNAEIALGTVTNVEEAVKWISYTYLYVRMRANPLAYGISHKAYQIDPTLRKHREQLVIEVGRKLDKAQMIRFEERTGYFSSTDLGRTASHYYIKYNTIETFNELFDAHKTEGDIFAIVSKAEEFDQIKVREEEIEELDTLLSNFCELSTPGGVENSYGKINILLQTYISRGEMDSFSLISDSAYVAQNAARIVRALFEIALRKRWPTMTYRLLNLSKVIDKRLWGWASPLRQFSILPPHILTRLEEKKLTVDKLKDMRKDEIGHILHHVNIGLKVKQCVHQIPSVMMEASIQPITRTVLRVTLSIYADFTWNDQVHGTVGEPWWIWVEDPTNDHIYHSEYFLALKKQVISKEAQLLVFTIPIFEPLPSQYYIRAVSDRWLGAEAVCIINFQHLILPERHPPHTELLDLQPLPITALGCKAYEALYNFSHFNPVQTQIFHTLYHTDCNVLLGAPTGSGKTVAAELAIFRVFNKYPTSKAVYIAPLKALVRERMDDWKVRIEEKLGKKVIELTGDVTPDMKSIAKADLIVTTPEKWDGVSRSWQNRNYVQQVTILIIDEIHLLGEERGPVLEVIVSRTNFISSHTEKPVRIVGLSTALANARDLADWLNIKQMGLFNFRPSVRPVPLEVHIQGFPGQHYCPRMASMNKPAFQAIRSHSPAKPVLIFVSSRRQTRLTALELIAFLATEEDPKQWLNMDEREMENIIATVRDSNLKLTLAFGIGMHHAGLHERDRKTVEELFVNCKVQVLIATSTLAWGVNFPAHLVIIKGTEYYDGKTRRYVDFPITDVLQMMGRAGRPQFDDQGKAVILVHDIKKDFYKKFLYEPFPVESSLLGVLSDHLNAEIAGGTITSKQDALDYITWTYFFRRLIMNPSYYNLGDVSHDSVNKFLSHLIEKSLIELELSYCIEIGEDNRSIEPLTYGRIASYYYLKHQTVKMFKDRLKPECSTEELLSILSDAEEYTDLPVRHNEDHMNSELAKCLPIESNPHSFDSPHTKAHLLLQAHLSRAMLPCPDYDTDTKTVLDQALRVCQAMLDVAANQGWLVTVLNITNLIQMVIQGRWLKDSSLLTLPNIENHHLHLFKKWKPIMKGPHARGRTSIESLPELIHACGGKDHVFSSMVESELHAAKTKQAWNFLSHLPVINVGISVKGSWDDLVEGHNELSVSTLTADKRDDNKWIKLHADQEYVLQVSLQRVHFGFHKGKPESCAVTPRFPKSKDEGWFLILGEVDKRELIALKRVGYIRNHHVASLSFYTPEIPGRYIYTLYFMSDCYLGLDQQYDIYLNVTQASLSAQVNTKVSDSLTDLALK
UniProt P56381: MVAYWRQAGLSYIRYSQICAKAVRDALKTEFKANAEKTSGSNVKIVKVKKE
UniProt Q9Y5K8, whole entry, looked up: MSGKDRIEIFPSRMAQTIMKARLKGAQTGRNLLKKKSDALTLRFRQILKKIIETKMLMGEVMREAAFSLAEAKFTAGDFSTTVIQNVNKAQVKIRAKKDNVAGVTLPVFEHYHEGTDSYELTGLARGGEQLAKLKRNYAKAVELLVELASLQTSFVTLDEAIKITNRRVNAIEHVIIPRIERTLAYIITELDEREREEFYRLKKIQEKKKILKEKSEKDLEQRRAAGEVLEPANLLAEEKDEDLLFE
UniProt P38606, whole entry, looked up: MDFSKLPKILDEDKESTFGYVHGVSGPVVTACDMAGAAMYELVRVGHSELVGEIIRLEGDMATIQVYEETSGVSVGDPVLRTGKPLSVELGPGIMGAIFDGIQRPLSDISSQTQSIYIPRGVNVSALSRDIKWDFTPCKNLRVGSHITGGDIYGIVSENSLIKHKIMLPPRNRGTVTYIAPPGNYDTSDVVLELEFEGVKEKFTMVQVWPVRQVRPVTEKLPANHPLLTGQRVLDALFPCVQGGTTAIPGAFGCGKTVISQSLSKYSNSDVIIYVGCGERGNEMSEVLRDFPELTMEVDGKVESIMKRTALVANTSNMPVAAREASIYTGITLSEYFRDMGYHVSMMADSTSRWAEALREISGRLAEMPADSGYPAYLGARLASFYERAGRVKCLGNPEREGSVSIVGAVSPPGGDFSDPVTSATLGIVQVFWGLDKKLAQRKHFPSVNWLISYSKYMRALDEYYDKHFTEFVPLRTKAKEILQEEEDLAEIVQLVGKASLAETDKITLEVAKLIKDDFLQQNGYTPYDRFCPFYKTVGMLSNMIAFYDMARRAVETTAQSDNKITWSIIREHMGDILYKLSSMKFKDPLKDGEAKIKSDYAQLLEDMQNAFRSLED
UniProt Q16864, whole entry, looked up: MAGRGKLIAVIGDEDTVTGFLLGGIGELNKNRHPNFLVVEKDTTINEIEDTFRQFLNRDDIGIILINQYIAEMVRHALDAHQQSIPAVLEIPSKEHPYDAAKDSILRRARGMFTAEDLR
UniProt P36542: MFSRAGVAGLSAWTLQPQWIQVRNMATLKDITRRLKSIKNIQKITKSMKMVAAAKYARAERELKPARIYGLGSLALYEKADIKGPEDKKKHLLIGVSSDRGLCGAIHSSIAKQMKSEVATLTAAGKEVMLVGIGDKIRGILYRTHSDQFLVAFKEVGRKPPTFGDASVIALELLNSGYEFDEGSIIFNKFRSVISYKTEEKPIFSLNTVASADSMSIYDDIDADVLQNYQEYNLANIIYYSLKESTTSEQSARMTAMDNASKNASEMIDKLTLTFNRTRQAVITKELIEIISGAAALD
UniProt Q13315: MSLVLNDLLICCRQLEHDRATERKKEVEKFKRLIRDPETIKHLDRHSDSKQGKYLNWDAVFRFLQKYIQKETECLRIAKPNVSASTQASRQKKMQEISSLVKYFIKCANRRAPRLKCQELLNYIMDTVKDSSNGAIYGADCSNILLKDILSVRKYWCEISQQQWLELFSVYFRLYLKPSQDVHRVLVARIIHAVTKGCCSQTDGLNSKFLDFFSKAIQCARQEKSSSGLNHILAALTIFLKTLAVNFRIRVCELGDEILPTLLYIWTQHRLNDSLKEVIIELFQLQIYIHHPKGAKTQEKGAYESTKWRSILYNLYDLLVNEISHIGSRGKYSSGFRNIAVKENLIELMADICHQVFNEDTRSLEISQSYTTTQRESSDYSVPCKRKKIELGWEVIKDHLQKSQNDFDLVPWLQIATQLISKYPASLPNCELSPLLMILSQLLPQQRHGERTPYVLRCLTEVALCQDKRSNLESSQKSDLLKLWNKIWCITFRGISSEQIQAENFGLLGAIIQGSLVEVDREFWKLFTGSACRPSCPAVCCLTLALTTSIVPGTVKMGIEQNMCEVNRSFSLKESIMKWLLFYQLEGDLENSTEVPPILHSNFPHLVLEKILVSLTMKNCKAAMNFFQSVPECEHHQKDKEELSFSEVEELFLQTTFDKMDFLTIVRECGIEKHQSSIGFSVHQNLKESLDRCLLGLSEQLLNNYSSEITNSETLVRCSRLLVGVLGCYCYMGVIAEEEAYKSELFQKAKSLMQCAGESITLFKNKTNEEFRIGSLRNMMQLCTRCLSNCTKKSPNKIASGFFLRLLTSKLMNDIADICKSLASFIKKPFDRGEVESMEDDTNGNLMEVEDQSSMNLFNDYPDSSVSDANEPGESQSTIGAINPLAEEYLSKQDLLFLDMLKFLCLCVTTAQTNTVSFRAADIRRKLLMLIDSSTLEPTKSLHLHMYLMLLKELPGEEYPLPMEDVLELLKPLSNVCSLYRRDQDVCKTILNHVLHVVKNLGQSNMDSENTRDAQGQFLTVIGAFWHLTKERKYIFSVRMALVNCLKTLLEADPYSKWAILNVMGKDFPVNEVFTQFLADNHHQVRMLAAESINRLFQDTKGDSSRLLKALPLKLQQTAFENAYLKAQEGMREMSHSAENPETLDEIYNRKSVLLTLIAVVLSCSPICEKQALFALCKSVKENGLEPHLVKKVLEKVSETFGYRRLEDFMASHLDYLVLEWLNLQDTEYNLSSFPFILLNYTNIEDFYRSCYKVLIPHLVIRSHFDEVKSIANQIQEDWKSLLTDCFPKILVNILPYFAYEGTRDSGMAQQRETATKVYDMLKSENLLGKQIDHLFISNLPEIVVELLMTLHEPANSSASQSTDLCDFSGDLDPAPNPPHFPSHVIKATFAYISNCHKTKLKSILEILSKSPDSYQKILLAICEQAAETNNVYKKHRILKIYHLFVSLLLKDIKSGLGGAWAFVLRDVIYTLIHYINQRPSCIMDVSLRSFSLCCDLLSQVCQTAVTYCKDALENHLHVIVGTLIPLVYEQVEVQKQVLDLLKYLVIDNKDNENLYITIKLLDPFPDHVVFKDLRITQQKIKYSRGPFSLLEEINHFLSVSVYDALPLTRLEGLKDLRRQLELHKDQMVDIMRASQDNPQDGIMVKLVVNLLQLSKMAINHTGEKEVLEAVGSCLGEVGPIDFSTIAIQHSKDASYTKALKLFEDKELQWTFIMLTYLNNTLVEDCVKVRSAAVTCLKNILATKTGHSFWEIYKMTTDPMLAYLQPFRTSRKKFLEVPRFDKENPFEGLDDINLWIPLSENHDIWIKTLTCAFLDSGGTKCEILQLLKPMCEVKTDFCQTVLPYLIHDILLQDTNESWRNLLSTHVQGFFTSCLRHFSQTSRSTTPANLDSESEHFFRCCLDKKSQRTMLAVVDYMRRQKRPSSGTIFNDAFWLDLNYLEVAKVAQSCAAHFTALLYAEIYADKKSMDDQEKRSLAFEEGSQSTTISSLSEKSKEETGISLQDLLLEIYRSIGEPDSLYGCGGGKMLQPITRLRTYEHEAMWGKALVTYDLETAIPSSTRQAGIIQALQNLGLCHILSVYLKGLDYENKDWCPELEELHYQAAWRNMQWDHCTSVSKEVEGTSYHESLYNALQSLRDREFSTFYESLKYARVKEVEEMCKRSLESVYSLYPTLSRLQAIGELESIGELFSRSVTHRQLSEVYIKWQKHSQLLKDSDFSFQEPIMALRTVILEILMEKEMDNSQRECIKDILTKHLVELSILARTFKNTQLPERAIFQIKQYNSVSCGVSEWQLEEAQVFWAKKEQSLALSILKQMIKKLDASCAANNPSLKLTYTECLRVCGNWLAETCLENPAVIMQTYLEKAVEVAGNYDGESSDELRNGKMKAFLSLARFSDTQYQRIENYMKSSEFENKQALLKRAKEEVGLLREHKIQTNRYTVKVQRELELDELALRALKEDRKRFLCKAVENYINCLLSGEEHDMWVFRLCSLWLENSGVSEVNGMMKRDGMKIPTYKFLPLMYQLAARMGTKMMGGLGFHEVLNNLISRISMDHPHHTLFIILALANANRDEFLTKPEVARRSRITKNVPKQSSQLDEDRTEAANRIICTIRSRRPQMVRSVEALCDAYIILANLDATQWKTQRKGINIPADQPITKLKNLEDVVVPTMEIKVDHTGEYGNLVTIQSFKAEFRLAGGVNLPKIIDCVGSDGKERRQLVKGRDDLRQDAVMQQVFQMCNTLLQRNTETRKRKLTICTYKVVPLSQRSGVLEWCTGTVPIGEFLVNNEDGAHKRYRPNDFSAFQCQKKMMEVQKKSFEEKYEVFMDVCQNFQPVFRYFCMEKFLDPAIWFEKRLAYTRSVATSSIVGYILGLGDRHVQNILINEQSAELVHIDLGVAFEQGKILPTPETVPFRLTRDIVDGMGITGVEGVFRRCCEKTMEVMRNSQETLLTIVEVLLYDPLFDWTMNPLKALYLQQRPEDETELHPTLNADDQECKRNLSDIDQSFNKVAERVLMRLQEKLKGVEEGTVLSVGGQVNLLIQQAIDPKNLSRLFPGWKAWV

Key:
Assay in all cases: log2 fold change, soluble protein after heating vs DMSO (PISA); higher = thermal stabilisation; K562 lysate, 10 uM; active = over 0.2 and 3.5 SD of the protein, either way, in both replicates (recomputed)
vemurafenib = compound: CCCS(=O)(=O)Nc1ccc(F)c(C(=O)c2c[nH]c3ncc(-c4ccc(Cl)cc4)cc23)c1F [vemurafenib]
How it was run: (§1)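 A 30 min treatment with 10 μM compound was applied to crude K562 extract at 1 mg/mL protein in PBS pH 7.4 with 1 mM MgCl2. Heating for 3 min spanned 48°C-58°C, after which aliquots were pooled, adjusted to 0.5% NP-40 at 4°C and spun at 21,000xg for 90 min. TMTpro 16plex LC-MS/MS of the supernatant, with channel sums equalised, gave values recorded as log-two fold change in thermal stability against solvent controls, from duplicates.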

[1] = compound: CCCS(=O)(=O)Nc1ccc(F)c(C(=O)c2c[nH]c3ncc(Cl)cc23)c1F
How it was run: as §1

barasertib = compound: CCN(CCCOc1ccc2c(Nc3cc(CC(=O)Nc4cccc(F)c4)[nH]n3)ncnc2c1)CCOP(=O)(O)O [barasertib]
How it was run: as §1

[2] = compound: CC[C@@H]1C(=O)N(C)c2cnc(Nc3ccc(C(=O)NC4CCN(C)CC4)cc3OC)nc2N1C1CCCC1
How it was run: as §1

volasertib = compound: CC[C@@H]1C(=O)N(C)c2cnc(Nc3ccc(C(=O)N[C@H]4CC[C@H](N5CCN(CC6CC6)CC5)CC4)cc3OC)nc2N1C(C)C [volasertib]
How it was run: as §1

[3] = compound: CCn1c(C(=O)N(C2CC2)C2CC2)cc2c3c(ncn3C)c(Nc3cc(C)n(C)n3)nc21
How it was run: as §1

[4] = compound: CCn1cc(-c2ccnc3[nH]c(-c4cccc(CN(C)C)c4)cc23)c(-c2ccc(NC(=O)N(C)C)cc2)n1
How it was run: as §1

[5] = compound: CN1CCC(CNc2ccc3ncc(-c4cccc(OC(F)(F)F)c4)n3n2)CC1
How it was run: as §1

saracatinib = compound: CN1CCN(CCOc2cc(OC3CCOCC3)c3c(Nc4c(Cl)ccc5c4OCO5)ncnc3c2)CC1 [saracatinib]
How it was run: as §1

sotrastaurin = compound: CN1CCN(c2nc(C3=C(c4c[nH]c5ccccc45)C(=O)NC3=O)c3ccccc3n2)CC1 [sotrastaurin]
How it was run: as §1

alvocidib = compound: CN1CC[C@H](c2c(O)cc(O)c3c(=O)cc(-c4ccccc4Cl)oc23)[C@H](O)C1 [alvocidib]
How it was run: as §1

Tubastatin A = compound: CN1CCc2c(c3ccccc3n2Cc2ccc(C(=O)NO)cc2)C1 [Tubastatin A]
How it was run: as §1

[6] = compound: CNC(=O)C1=CC=CC=C1NC2=NC(=NC=C2Cl)NC3=C(C=C(C=C3)N4CCOCC4)OC
How it was run: as §1

defactinib = compound: CNC(=O)c1ccc(Nc2ncc(C(F)(F)F)c(NCc3nccnc3N(C)S(C)(=O)=O)n2)cc1 [defactinib]
How it was run: as §1

[7] = compound: CNc1nc(-c2ccc3c(N)n[nH]c3c2)cc(N2C[C@@H](C(=O)NC3CCCCC3)CC[C@H]2C)n1
How it was run: as §1

encorafenib = compound: COC(=O)N[C@@H](C)CNc1nccc(-c2cn(C(C)C)nc2-c2cc(Cl)cc(NS(C)(=O)=O)c2F)n1 [encorafenib]
How it was run: as §1

[8] = compound: COC(=O)[C@H](CCSC)NC(=O)C1=C(C=C(C=C1)NC[C@H](CS)N)C2=CC=CC=C2
How it was run: as §1

alisertib = compound: COc1cc(Nc2ncc3c(n2)-c2ccc(Cl)cc2C(c2c(F)cccc2OC)=NC3)ccc1C(=O)O [alisertib]
How it was run: as §1

[9] = compound: COc1cc2nc(-c3cc(F)ccc3O)nc(N[C@@H]3CNC[C@H]3C(C)(C)O)c2cc1OC
How it was run: as §1

gefitinib = compound: COc1cc2ncnc(Nc3ccc(F)c(Cl)c3)c2cc1OCCCN1CCOCC1 [gefitinib]
How it was run: as §1

Measured: log2 fold change

ATP2C1 isoform 7 (UniProt P98194)
inactive: vemurafenib 0.135 | [1] 0.036 | barasertib 0.037 | [2] 0.076 | volasertib 0.011 | [3] 0.459 | [4] -0.024 | [5] 0.032 | saracatinib 0.06 | sotrastaurin -0.032 | alvocidib 0.028 | Tubastatin A -0.04 | [6] -0.052 | defactinib -0.254 | [7] -0.087 | encorafenib 0.043 | [8] -0.014 | alisertib 0.078 | [9] 0.019 | gefitinib -0.03

ASCC3 (UniProt Q8N3C0)
inactive: vemurafenib 0.103 | [1] 0.018 | barasertib 0.052 | [2] -0.007 | volasertib -0.024 | [3] 0.01 | [4] -0.098 | [5] -0.003 | saracatinib 0.005 | sotrastaurin 0.028 | alvocidib -0.023 | Tubastatin A -0.064 | [6] 0.037 | defactinib -0.026 | [7] 0.07 | encorafenib 0.02 | [8] 0.126 | alisertib -0.004 | [9] 0.029 | gefitinib -0.016

ATG12 (UniProt O94817)
inactive: vemurafenib -0.03 | [1] 0.04 | barasertib 0.027 | [2] 0.054 | volasertib -0.052 | [3] 0.007 | [4] -0.072 | [5] 0.117 | saracatinib 0.04 | sotrastaurin 0.005 | alvocidib -0.043 | Tubastatin A -0.002 | [6] 0.074 | defactinib -0.037 | [7] 0.02 | encorafenib 0.065 | [8] -0.096 | alisertib 0.021 | [9] 0.002 | gefitinib 0.009

ATP6V1H (UniProt Q9UI12)
inactive: vemurafenib 0.003 | [1] -0.015 | barasertib -0.028 | [2] 0.02 | volasertib -0.001 | [3] 0.017 | [4] -0.075 | [5] 0.017 | saracatinib -0.001 | sotrastaurin 0.016 | alvocidib -0.019 | Tubastatin A 0.007 | [6] -0.009 | defactinib -0.024 | [7] 0.02 | encorafenib 0.005 | [8] -0.021 | alisertib -0.021 | [9] 0.028 | gefitinib 0.013

ATP5F1E (UniProt P56381)
inactive: vemurafenib -0.032 | [1] -0.011 | barasertib -0.004 | [2] 0.064 | volasertib 0.015 | [3] 0.06 | [4] 0.013 | [5] -0.022 | saracatinib -0.069 | sotrastaurin -0.014 | alvocidib -0.019 | Tubastatin A 0.042 | [6] -0.005 | defactinib 0.005 | [7] 0.019 | encorafenib 0.022 | [8] -0.127 | alisertib -0.069 | [9] 0.004 | gefitinib 0.005

ATAD3A (UniProt Q9NVI7)
inactive: vemurafenib -0.018 | [1] 0.007 | barasertib 0.035 | [2] 0.009 | volasertib 0.004 | [3] 0.037 | [4] 0.031 | [5] -0.175 | saracatinib 0 | sotrastaurin 0.03 | alvocidib 0.062 | Tubastatin A -0.018 | [6] -0.008 | defactinib -0.077 | [7] 0.005 | encorafenib 0.081 | [8] -0.062 | alisertib 0 | [9] -0.001 | gefitinib -0.008

ATP6V1D (UniProt Q9Y5K8)
inactive: vemurafenib -0.026 | [1] 0.009 | barasertib 0.027 | [2] 0.012 | volasertib 0.028 | [3] -0.016 | [4] 0.092 | [5] -0.02 | saracatinib 0.004 | sotrastaurin 0 | alvocidib 0.017 | Tubastatin A -0.011 | [6] 0.02 | defactinib 0.014 | [7] 0.003 | encorafenib -0.005 | [8] -0.016 | alisertib -0.01 | [9] 0.002 | gefitinib 0.022

ATG9A (UniProt Q7Z3C6)
inactive: vemurafenib 0.053 | [1] 0.022 | barasertib 0.018 | [2] 0.029 | volasertib -0.037 | [3] 0.001 | [4] -0.076 | [5] -0.01 | saracatinib 0 | sotrastaurin 0.046 | alvocidib -0.02 | Tubastatin A -0.028 | [6] -0.027 | defactinib -0.017 | [7] 0.013 | encorafenib 0.005 | [8] 0.086 | alisertib -0.018 | [9] 0.009 | gefitinib 0.04

ATP6V1A (UniProt P38606)
inactive: vemurafenib -0.029 | [1] -0.001 | barasertib -0.019 | [2] 0.016 | volasertib 0.009 | [3] -0.003 | [4] -0.007 | [5] 0.03 | saracatinib 0.01 | sotrastaurin 0.007 | alvocidib -0.005 | Tubastatin A 0.077 | [6] 0.003 | defactinib -0.006 | [7] -0.042 | encorafenib -0.036 | [8] 0.024 | alisertib 0.019 | [9] 0.001 | gefitinib -0.018

2 entries picked at random from those above, as already listed:
ATP2C1 isoform 7 (UniProt P98194)
inactive: vemurafenib 0.135 | [1] 0.036 | barasertib 0.037 | [2] 0.076 | volasertib 0.011 | [3] 0.459 | [4] -0.024 | [5] 0.032 | saracatinib 0.06 | sotrastaurin -0.032 | alvocidib 0.028 | Tubastatin A -0.04 | [6] -0.052 | defactinib -0.254 | [7] -0.087 | encorafenib 0.043 | [8] -0.014 | alisertib 0.078 | [9] 0.019 | gefitinib -0.03

ATP6V1H (UniProt Q9UI12)
inactive: vemurafenib 0.003 | [1] -0.015 | barasertib -0.028 | [2] 0.02 | volasertib -0.001 | [3] 0.017 | [4] -0.075 | [5] 0.017 | saracatinib -0.001 | sotrastaurin 0.016 | alvocidib -0.019 | Tubastatin A 0.007 | [6] -0.009 | defactinib -0.024 | [7] 0.02 | encorafenib 0.005 | [8] -0.021 | alisertib -0.021 | [9] 0.028 | gefitinib 0.013

Next results follow.

ATP6V1F isoform 2 (UniProt Q16864)
inactive: vemurafenib -0.029 | [1] 0.004 | barasertib 0.086 | [2] 0.074 | volasertib 0.052 | [3] -0.006 | [4] 0.044 | [5] -0.17 | saracatinib 0.044 | sotrastaurin -0.004 | alvocidib 0.217 | Tubastatin A 0.12 | [6] 0.034 | defactinib 0.329 | [7] -0.056 | encorafenib 0.068 | [8] -0.02 | alisertib -0.02 | [9] -0.126 | gefitinib -0.141

ATP5MPL (UniProt P56378)
inactive: vemurafenib -0.025 | [1] -0.019 | barasertib 0.004 | [2] -0.054 | volasertib 0.022 | [3] 0.007 | [4] 0.077 | [5] -0.104 | saracatinib 0.007 | sotrastaurin 0.029 | alvocidib 0.033 | Tubastatin A 0.007 | [6] -0.022 | defactinib 0.086 | [7] -0.009 | encorafenib 0.035 | [8] -0.02 | alisertib 0 | [9] 0.017 | gefitinib -0.108

B3GNT2 (UniProt Q9NY97)
inactive: vemurafenib 0.039 | [1] 0.012 | barasertib -0.077 | [2] 0.052 | volasertib -0.072 | [3] -0.032 | [4] -0.098 | [5] 0.067 | saracatinib 0.025 | sotrastaurin -0.004 | alvocidib -0.036 | Tubastatin A 0.022 | [6] 0.044 | defactinib 0 | [7] 0.014 | encorafenib 0.085 | [8] -0.023 | alisertib 0.056 | [9] -0.095 | gefitinib 0.024

ATP5F1C (UniProt P36542)
inactive: vemurafenib -0.019 | [1] 0.003 | barasertib -0.027 | [2] 0.029 | volasertib 0.013 | [3] -0.009 | [4] -0.01 | [5] -0.013 | saracatinib -0.003 | sotrastaurin 0.027 | alvocidib 0.012 | Tubastatin A 0.012 | [6] -0.038 | defactinib -0.02 | [7] -0.004 | encorafenib 0.009 | [8] -0.039 | alisertib -0.006 | [9] 0.011 | gefitinib 0.031

AZGP1 (UniProt P25311)
inactive: vemurafenib -0.011 | [1] -0.267 | barasertib -0.211 | [2] 0 | volasertib -0.238 | [3] -0.059 | [4] 0.217 | [5] -0.142 | saracatinib 0.117 | sotrastaurin -0.177 | alvocidib 0.128 | Tubastatin A 0.396 | [6] -0.225 | defactinib 0.104 | [7] -0.302 | encorafenib 0.035 | [8] 0.958 | alisertib -0.223 | [9] -0.228 | gefitinib 0.203

ATM (UniProt Q13315)
inactive: vemurafenib -0.063 | [1] -0.004 | barasertib 0.041 | [2] 0.005 | volasertib -0.078 | [3] 0.021 | [4] -0.089 | [5] 0.071 | saracatinib -0.011 | sotrastaurin 0.032 | alvocidib -0.048 | Tubastatin A 0.013 | [6] 0.013 | defactinib 0.105 | [7] -0.005 | encorafenib -0.031 | [8] 0.087 | alisertib -0.01 | [9] 0.078 | gefitinib 0.022

AVL9 (UniProt Q8NBF6)
inactive: vemurafenib 0.007 | [1] 0.037 | barasertib -0.006 | [2] 0.052 | volasertib 0.003 | [3] -0.011 | [4] -0.1 | [5] 0.123 | saracatinib 0.017 | sotrastaurin 0.022 | alvocidib -0.047 | Tubastatin A 0.027 | [6] 0.006 | defactinib -0.024 | [7] 0.02 | encorafenib 0.024 | [8] -0.02 | alisertib -0.019 | [9] 0.026 | gefitinib 0.036
